Test results: patent US8603987 (GALAXY BIOTECH, dated 2013)
These are yes or no findings as the source states them, for the method shown. Some entries that bind do so weakly or less than the wild type.

By UniProt entry, the sequences of proteins in these tests, tags left out. Where a name states a change or a piece, a line headed by the entry shows the natural chain unless it says otherwise. Chains listed by the source or under a name are the forms on record and can include a tag or linker.
Mouse FGFR2(beta)IIIb-Fc protein (R&D Systems Catalog #708-MF) (P21803, form named): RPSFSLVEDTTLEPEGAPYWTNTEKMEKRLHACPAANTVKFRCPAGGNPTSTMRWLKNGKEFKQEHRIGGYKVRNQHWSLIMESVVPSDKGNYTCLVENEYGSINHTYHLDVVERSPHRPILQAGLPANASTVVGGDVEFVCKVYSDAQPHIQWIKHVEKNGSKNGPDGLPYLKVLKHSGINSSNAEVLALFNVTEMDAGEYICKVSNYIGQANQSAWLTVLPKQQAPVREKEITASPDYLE

Target: Mouse FGFR2(beta)IIIb-Fc protein (R&D Systems Catalog #708-MF) (mouse) (UniProt P21803)
Experiment: ELISA, FGFR2IIIb-Fc captured by anti-human IgG-Fc

| Binder | binding |
| --- | --- |
| GAL-FR21 (antibody, V domains shown, Mouse monoclonal antibody from a hybridoma; also called mouse GAL-FR21; ATCC PTA-9586) VH: QVQLQQPGAEVVKPGASVKMSCKASGYIFTTYNVHWVKQTPGQGLEWIGSIYPDNGDTSYNQNFKGKATLTADKSSSTAYIQLSSLTSEDSAVYYCARGDFAYWGQGTLVTVSV VL: NIVMTQSPKSMSMSVGDRVSITCKASQGVSNDVAWYQKKPGQSPKLLIYSASYRYTGVPDRFTGSGSGTDFTFTISNVQAEDLAVYYCQQHSTTPYTFGGGTKLEIK | binds |
| GAL-FR22 (antibody, V domains shown, Mouse monoclonal antibody from a hybridoma; also called GAL-FG22; ATCC PTA-9587) VH: QVQLKQSGPGLVQPSQSLSITCTVSGFSLTSFGVHWVRQSPGKGLEWLGVIWSGGSTDYNADFRSRLSISKDNSKSQIFFKMNSLQPDDTAIYYCANFYYGYDDYVMDYWGQGTSVTVSS VL: DIQMTQSPSSLSASLGGRVTITCKASQDIKNYIAWYQHKPGKSPRLLIHYTSTLQPGVPSRFSGSGSGRDYSFSISNLEPEDIATYYCLQYDDLYMFGGGTKLDIK | binds |
